# Results as given in the supplement of paper PMC6411743.
# ± gives the standard deviation of the averaged measurements. This is a selection; strong and weak results do not stand in their true shares.
# Key:
# Test in all cases: NP40-soluble protein abundance relative to vehicle (solubility fold change) (ratio); higher = more soluble protein in presence of ATP
# [1] = target: T1, UniProt Q7L3B6 and related entries
# T1 sequence (whole entry): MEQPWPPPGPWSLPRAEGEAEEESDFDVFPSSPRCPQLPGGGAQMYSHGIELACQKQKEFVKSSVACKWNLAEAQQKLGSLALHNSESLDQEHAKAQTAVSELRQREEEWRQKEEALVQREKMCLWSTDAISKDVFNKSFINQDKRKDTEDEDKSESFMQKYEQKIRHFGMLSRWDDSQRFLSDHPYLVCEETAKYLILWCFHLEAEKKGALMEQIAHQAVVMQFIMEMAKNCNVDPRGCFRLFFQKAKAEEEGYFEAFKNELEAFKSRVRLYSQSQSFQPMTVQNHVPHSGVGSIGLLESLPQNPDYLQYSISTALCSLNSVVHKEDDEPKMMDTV
# Procedure, shortened: (§1)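 Across three independent experiments, values are fold changes against the detergent-processed vehicle for each replicate, based on vsn-normalised intensities. The samples were Jurkat crude lysate treated with eight concentrations (0.1 to 10 mM) for 10 min at room temperature and then 3 min at 37 °C. Lysate was solubilised with 0.8% NP40 and benzonase, ultracentrifuged, and the supernatant analysed by TMT-labelled LC-MS/MS.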
# UniProt Q7L8W6 = target: T2, UniProt Q7L8W6
# T2 sequence (whole entry): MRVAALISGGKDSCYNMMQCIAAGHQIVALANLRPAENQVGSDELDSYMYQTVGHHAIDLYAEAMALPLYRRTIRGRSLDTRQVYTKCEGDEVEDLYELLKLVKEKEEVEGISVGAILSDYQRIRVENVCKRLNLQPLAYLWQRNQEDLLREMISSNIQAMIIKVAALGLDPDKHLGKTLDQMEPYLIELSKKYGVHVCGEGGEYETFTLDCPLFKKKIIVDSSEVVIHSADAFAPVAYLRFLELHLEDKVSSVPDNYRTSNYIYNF
# Procedure, shortened: as §1
# [2] = target: T3, UniProt Q86TB9 and related entries
# T3 sequence (whole entry): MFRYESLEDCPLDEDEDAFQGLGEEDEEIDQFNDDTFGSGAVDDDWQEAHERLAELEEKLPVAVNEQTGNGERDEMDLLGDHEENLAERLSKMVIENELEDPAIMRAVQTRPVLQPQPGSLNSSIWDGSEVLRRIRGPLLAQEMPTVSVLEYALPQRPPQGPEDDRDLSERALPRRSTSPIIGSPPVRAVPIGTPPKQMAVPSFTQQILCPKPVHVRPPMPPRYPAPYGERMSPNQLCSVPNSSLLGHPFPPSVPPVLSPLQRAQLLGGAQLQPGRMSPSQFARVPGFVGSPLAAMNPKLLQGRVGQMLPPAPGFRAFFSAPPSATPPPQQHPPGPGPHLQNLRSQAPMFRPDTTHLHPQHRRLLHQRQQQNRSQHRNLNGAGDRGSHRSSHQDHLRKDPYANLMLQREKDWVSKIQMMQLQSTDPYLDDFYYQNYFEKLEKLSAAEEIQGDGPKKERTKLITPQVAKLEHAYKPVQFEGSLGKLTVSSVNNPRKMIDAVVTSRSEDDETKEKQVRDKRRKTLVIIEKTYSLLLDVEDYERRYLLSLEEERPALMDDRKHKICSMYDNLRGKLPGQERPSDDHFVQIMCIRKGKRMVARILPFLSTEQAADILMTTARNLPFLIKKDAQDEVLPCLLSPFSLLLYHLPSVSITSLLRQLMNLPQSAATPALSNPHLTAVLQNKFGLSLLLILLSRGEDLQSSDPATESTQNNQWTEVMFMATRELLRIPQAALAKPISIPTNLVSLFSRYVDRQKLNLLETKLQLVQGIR
# Procedure, shortened: as §1
# [3] = target: T4, UniProt Q86W34 and related entries
# T4 sequence (whole entry): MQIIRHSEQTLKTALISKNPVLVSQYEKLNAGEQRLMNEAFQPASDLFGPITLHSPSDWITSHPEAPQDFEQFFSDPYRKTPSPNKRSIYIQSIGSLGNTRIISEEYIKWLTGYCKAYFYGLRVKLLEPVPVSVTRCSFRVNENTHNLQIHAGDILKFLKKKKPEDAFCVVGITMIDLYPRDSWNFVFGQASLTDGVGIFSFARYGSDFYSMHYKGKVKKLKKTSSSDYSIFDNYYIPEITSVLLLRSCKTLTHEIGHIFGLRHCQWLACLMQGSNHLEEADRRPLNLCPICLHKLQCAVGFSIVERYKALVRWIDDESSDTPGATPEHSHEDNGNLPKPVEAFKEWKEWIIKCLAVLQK
# Procedure, shortened: as §1
# [4] = target: T5, UniProt Q86WA6 and related entries
# T5 sequence (whole entry): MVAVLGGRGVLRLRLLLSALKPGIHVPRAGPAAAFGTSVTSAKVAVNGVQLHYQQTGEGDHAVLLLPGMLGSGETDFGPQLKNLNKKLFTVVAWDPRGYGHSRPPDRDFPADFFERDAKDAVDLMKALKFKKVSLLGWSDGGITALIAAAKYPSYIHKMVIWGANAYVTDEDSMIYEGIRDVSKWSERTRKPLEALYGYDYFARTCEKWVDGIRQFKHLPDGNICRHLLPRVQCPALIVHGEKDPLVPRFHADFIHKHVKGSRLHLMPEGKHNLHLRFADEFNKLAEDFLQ
# Procedure, shortened: as §1
structure (smiles),measurement,setting,value
Nc1ncnc2c1ncn2[C@@H]1O[C@H](COP(=O)(O)OP(=O)(O)OP(=O)(O)O)[C@@H](O)[C@H]1O [adenosine triphosphate],NP40-soluble protein abundance,[1]; concentration: 1mM,0.94 ± 0.013
same,NP40-soluble protein abundance,[1]; concentration: 2mM,0.959 ± 0.015
same,NP40-soluble protein abundance,[1]; concentration: 4mM,0.923 ± 0.066
same,NP40-soluble protein abundance,[1]; concentration: 6mM,0.985 ± 0.059
same,NP40-soluble protein abundance,[1]; concentration: 8mM,0.923 ± 0.011
same,NP40-soluble protein abundance,[1]; concentration: 10mM,0.891 ± 0.085
same,NP40-soluble protein abundance,UniProt Q7L8W6; concentration: 1mM,1.01 ± 0.11
same,NP40-soluble protein abundance,UniProt Q7L8W6; concentration: 2mM,1.04 ± 0.11
same,NP40-soluble protein abundance,UniProt Q7L8W6; concentration: 4mM,1.01 ± 0.078
same,NP40-soluble protein abundance,UniProt Q7L8W6; concentration: 6mM,1.01 ± 0.18
same,NP40-soluble protein abundance,UniProt Q7L8W6; concentration: 8mM,1.03 ± 0.062
same,NP40-soluble protein abundance,UniProt Q7L8W6; concentration: 10mM,1.07 ± 0.12
same,NP40-soluble protein abundance,[2]; concentration: 1mM,0.9812 ± 0.0094
same,NP40-soluble protein abundance,[2]; concentration: 2mM,0.9891 ± 0.0063
same,NP40-soluble protein abundance,[2]; concentration: 4mM,0.97 ± 0.016
same,NP40-soluble protein abundance,[2]; concentration: 6mM,0.9846 ± 0.0072
same,NP40-soluble protein abundance,[2]; concentration: 8mM,0.963 ± 0.017
same,NP40-soluble protein abundance,[2]; concentration: 10mM,0.973 ± 0.0086
same,NP40-soluble protein abundance,[3]; concentration: 1mM,1.02 ± 0.073
same,NP40-soluble protein abundance,[3]; concentration: 2mM,1.06 ± 0.052
same,NP40-soluble protein abundance,[3]; concentration: 4mM,1.06 ± 0.017
same,NP40-soluble protein abundance,[3]; concentration: 6mM,0.881 ± 0.14
same,NP40-soluble protein abundance,[3]; concentration: 8mM,0.996 ± 0.044
same,NP40-soluble protein abundance,[3]; concentration: 10mM,1.06 ± 0.1
same,NP40-soluble protein abundance,[4]; concentration: 1mM,0.985 ± 0.04
same,NP40-soluble protein abundance,[4]; concentration: 2mM,0.974 ± 0.03
same,NP40-soluble protein abundance,[4]; concentration: 4mM,0.974 ± 0.03
same,NP40-soluble protein abundance,[4]; concentration: 6mM,0.944 ± 0.039
same,NP40-soluble protein abundance,[4]; concentration: 8mM,0.982 ± 0.016
same,NP40-soluble protein abundance,[4]; concentration: 10mM,0.94 ± 0.038

# 2 records picked at random from the list so far:
structure (smiles),measurement,setting,value
Nc1ncnc2c1ncn2[C@@H]1O[C@H](COP(=O)(O)OP(=O)(O)OP(=O)(O)O)[C@@H](O)[C@H]1O [adenosine triphosphate],NP40-soluble protein abundance,[2]; concentration: 8mM,0.963 ± 0.017
same,NP40-soluble protein abundance,[3]; concentration: 10mM,1.06 ± 0.1
